Earlier results as cited in patent US20110071124A1, “Compounds that Inhibit Production of sAPPB and AB and Uses Thereof” (The Trustees of Columbia University in the City of New York, priority 2008, published 2011).
At least one compound was matched to its structure with a doubt left.

Tested on: cocaine self-administration
Conditions: intravenous injection; cited from earlier work

For `Fc1ccc(C(OCCN2CCN(CCCc3ccccc3)CC2)c2ccc(F)cc2)cc1` [GBR 12909, reference compound], the “block of cocaine self-administration” value is listed as “selectively block cocaine self-administration”.
